Data as given in PubChem BioAssay AID1259425 (University of Nebraska Medical Center, 2018).
In all, the deposit lists about 14,000 reagents; below is a part drawn at random. Not all columns of the deposit are shown. The record does not give: the time to read-out.

- Aim: 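Compare each knockdown with KSR1 silencing using changes in marker transcripts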 (primary screen)
- System: HCT116 human colon cancer cells
- Knock-down reagent: siRNA pool against human genes, 50 nM siRNA
- Measurement: 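mRNA of six signature genes measured together by branched-DNA assay after 50 nM siRNA pool, blank removed, divided by geometric mean of two housekeeping genes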
- Scale: BNIP3L mRNA: higher = more BNIP3L transcript after knockdown; NDRG1 mRNA: higher = more NDRG1 transcript after knockdown

For PPIP5K2 the deposit lists BNIP3L mRNA, set 1 = 0.0954; NDRG1 mRNA, set 1 = 0.182. JPH3 gave BNIP3L mRNA, set 1 = 0.153; NDRG1 mRNA, set 1 = 0.227. With knock-down of WDR11 the results were BNIP3L mRNA, set 1 = 0.124; NDRG1 mRNA, set 1 = 0.188. Knock-down of TCTA gave: BNIP3L mRNA, set 1 = 0.0462; NDRG1 mRNA, set 1 = 0.227. For IL15, the entry reads BNIP3L mRNA, set 1 = 0.0627; NDRG1 mRNA, set 1 = 0.11. MORF4L2 showed BNIP3L mRNA, set 1 = 0.0783; NDRG1 mRNA, set 1 = 0.257.

With knock-down of PDK1, the record shows BNIP3L mRNA, set 1 = 0.114; NDRG1 mRNA, set 1 = 0.0358. Depletion of ENY2 gave: BNIP3L mRNA, set 1 = 0.23; NDRG1 mRNA, set 1 = 0.122. For ZNF14 the deposit lists BNIP3L mRNA, set 1 = 0.127; NDRG1 mRNA, set 1 = 0.0748. EXD2 showed BNIP3L mRNA, set 1 = 0.0923; NDRG1 mRNA, set 1 = 0.21. Depletion of PCDHGA7 came out at: BNIP3L mRNA, set 1 = 0.0984; NDRG1 mRNA, set 1 = 0.296. Silencing of RAB11FIP2 came out at: BNIP3L mRNA, set 1 = 0.142; NDRG1 mRNA, set 1 = 0.593.

Depletion of ZNF234 came out at: BNIP3L mRNA, set 1 = 0.105; NDRG1 mRNA, set 1 = 0.183.

4 consecutive records already listed:
JPH3 — BNIP3L mRNA, set 1: 0.153; NDRG1 mRNA, set 1: 0.227
WDR11 — BNIP3L mRNA, set 1: 0.124; NDRG1 mRNA, set 1: 0.188
TCTA — BNIP3L mRNA, set 1: 0.0462; NDRG1 mRNA, set 1: 0.227
IL15 — BNIP3L mRNA, set 1: 0.0627; NDRG1 mRNA, set 1: 0.11

Next records:
With knock-down of NXPH2, the screen gave BNIP3L mRNA, set 1 = 0.208; NDRG1 mRNA, set 1 = 0.654. CCDC186 scored BNIP3L mRNA, set 1 = 0.144; NDRG1 mRNA, set 1 = 0.12. For DAB2 the deposit lists BNIP3L mRNA, set 1 = 0.113; NDRG1 mRNA, set 1 = 0.407. With knock-down of MICALL2, the record shows BNIP3L mRNA, set 1 = 0.254; NDRG1 mRNA, set 1 = 0.161. SPX showed BNIP3L mRNA, set 1 = 0.119; NDRG1 mRNA, set 1 = 0.212. Depletion of SUFU resulted in: BNIP3L mRNA, set 1 = 0.0533; NDRG1 mRNA, set 1 = 0.109.

With knock-down of EMP2, the screen gave BNIP3L mRNA, set 1 = 0.0542; NDRG1 mRNA, set 1 = 0.26. Depletion of SLU7 gave: BNIP3L mRNA, set 1 = 0.0933; NDRG1 mRNA, set 1 = 0.0589. Against BICRAL, the entry reads BNIP3L mRNA, set 1 = 0.131; NDRG1 mRNA, set 1 = 0.184. With knock-down of ALKBH2, the screen gave BNIP3L mRNA, set 1 = 0.0762; NDRG1 mRNA, set 1 = 0.12. RPS6 scored BNIP3L mRNA, set 1 = 0.193; NDRG1 mRNA, set 1 = 0.33. KIF3B showed BNIP3L mRNA, set 1 = 0.0647; NDRG1 mRNA, set 1 = 0.111.

RLN2 showed BNIP3L mRNA, set 1 = 0.0713; NDRG1 mRNA, set 1 = 0.0749. DEFB126 gave BNIP3L mRNA, set 1 = 0.0779; NDRG1 mRNA, set 1 = 0.471. WBP4 showed BNIP3L mRNA, set 1 = 0.137; NDRG1 mRNA, set 1 = 0.265. Knock-down of AP3B1 came out at: BNIP3L mRNA, set 1 = 0.0576; NDRG1 mRNA, set 1 = 0.121. Knock-down of S100P came out at: BNIP3L mRNA, set 1 = 0.25; NDRG1 mRNA, set 1 = 0.736. HSPB7 gave BNIP3L mRNA, set 1 = 0.0864; NDRG1 mRNA, set 1 = 0.111.

After knock-down of ZNF268, the record shows BNIP3L mRNA, set 1 = 0.0645; NDRG1 mRNA, set 1 = 0.0596. Depletion of TTC22 resulted in: BNIP3L mRNA, set 1 = 0.211; NDRG1 mRNA, set 1 = 0.667. Silencing of CLSTN3 resulted in: BNIP3L mRNA, set 1 = 0.0842; NDRG1 mRNA, set 1 = 0.229. Against THOC3, the entry reads BNIP3L mRNA, set 1 = 0.123; NDRG1 mRNA, set 1 = 0.312. Knock-down of AVPI1 resulted in: BNIP3L mRNA, set 1 = 0.132; NDRG1 mRNA, set 1 = 0.314.
